Measured values as given in PubChem BioAssay AID200 (DTP/NCI, 2004).
The list is a part of this screen's results and no random one: it gathers tests that were run many times, whatever their T/C, doses with no T/C, and many T/C values between a quarter and a half above the control. Further doses and runs are listed elsewhere. T/C is the treated group as % of the vehicle group. Some doses have a count of surviving animals in place of a T/C: the source files T/C as zero there, which appears to mark a toxic dose or a test without result, not a measured value. Some doses without a T/C left all or most animals alive at the check, yet need not have been tolerated: survival well below the control is almost never listed, so the zero probably covers shortened survival too. Survivors were counted at the toxicity check, usually on the fifth day, unless a day is given; later deaths do not show. Schedules are NCI's codes, taken here to give the interval after Q, in days (D) or hours (H), and the number of doses after X. Brackets with × count equal records among those shown. Some doses were run more than once; the results are listed from low to high. Where survival is the endpoint, this PubChem deposit counts one and a half times the control or more as active, and values a quarter to a half above the control carry no call in these data; other NCI protocols may use other cut-offs. Some T/C values carry the count of animals alive at the toxicity check (mostly the fifth day); without a count, all were alive then.

Test system: B6C3F1 mice, B16 melanoma ip, median survival T/C
Assay: NCI In Vivo Anticancer Drug Screen. Data for tumor model B16 Melanoma (intraperitoneal) in B6C3F1 mice
Details: T/C endpoint: median survival time, schedule: Q01DX009 (ip), higher T/C = longer survival
Outline: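 Readout: survival or tumor size in treated mice relative to vehicle controls (T/C). Model uses transplantable tumors grown in mice.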

[1] = dose: 200.0 mg/kg/injection, vehicle: saline with Tween-80
[2] = dose: 400.0 mg/kg/injection, vehicle: saline with Tween-80
[3] = dose: 50.0 mg/kg/injection, vehicle: saline with Tween-80
[4] = dose: 100.0 mg/kg/injection, vehicle: saline with Tween-80
[5] = dose: 200.0 mg/kg/injection, vehicle: saline
[6] = dose: 25.0 mg/kg/injection, vehicle: saline
[7] = dose: 50.0 mg/kg/injection, vehicle: saline
[8] = dose: 400.0 mg/kg/injection, vehicle: Klucel (hydroxypropylcellulose) (HPC)

CCN(CC)CC(=O)O[C@]1(CC)C(=O)OCc2c1cc1n(c2=O)Cc2cc3ccccc3nc2-1 was tested, and the T/C (dose: 2.8 mg/kg/injection, vehicle: water) was 140 % of control, the T/C (dose: 2.88 mg/kg/injection, vehicle: water) was 136 % of control [9 of 10 alive] and the survivor count (dose: 8.0 mg/kg/injection, vehicle: water) was 10 of 10. The survivor count (dose: 13.33 mg/kg/injection, vehicle: water) was 6 of 10 and 10 of 10, the survivor count (dose: 16.0 mg/kg/injection, vehicle: water) was 10 of 10 and the survivor count (dose: 22.22 mg/kg/injection, vehicle: water) was 3 of 10 and 10 of 10.

With Nc1nc2c(C(=O)N3CCCC3)nnn2c2ccccc12 the survivor count [1] was 0 of 10.

With O=C1C2CC=CCC2C(=O)N1SC(Cl)(Cl)Cl (configuration not stated) the survivor count (dose: 1.56 mg/kg/injection, vehicle: saline with Tween-80) was 10 of 10 and the survivor count (dose: 3.13 mg/kg/injection, vehicle: saline with Tween-80) was 10 of 10.

In the case of C=C1C(O)C2(O)OCC34C(CC5C(C)=CC(=O)C(O)C5(C)C23)OC(=O)C(OC(=O)C/C=C(\C)CCCCC)C14 (configuration not stated), the survivor count (dose: 13.33 mg/kg/injection, vehicle: saline + Tween-80 + alcohol) is reported as 6 of 10, the survivor count (dose: 16.0 mg/kg/injection, vehicle: saline + alcohol) is reported as 4 of 10 and the survivor count (dose: 22.22 mg/kg/injection, vehicle: saline + Tween-80 + alcohol) is reported as 1 of 10. For the same compound, the survivor count (dose: 32.0 mg/kg/injection, vehicle: saline + alcohol) was 1 of 10 and the survivor count (dose: 64.0 mg/kg/injection, vehicle: saline + alcohol) was 0 of 10.

With c1ccc2c(c1)[As]=c1ccccc1=[As]2 (configuration not stated) the T/C (dose: 12.0 mg/kg/injection, vehicle: saline with Tween-80) was 127 % of control.

CCOC(=O)C(C)(C)Oc1ccc(Cl)cc1 was tested, and the survivor count [1] was 10 of 10 and the survivor count [2] was 7 of 10 and 9 of 10.

For COc1ccc(C(Cn2ccnc2)Sc2ccc(Cl)c(Cl)c2)cc1 (configuration not stated), the survivor count [3] was 8 of 10 and 8 of 8, the survivor count [4] was 5 of 10 and 9 of 10 and the survivor count [1] was 0 of 10 and 5 of 10.

For CC(C)NC(=O)OCc1c(COC(=O)NC(C)C)c(-c2ccc(Cl)c(Cl)c2)n2c1C[C@@H](O)C2, the T/C (dose: 2.5 mg/kg/injection, vehicle: Klucel (hydroxypropylcellulose) (HPC)) was 129 % of control, the T/C (dose: 5.0 mg/kg/injection, vehicle: Klucel (hydroxypropylcellulose) (HPC)) was 129 % of control [9 of 10 alive] and the T/C (dose: 10.0 mg/kg/injection, vehicle: Klucel (hydroxypropylcellulose) (HPC)) was 143 % of control. For the same compound, the survivor count (dose: 80.0 mg/kg/injection, vehicle: water) was 10 of 10.

In the case of CCCC(=O)OCC1OC(n2cnc3c(=S)nc(N)[nH]c32)C(OC(=O)CCC)C1OC(=O)CCC (configuration not stated), the survivor count (dose: 12.5 mg/kg/injection, vehicle: Klucel (hydroxypropylcellulose) (HPC)) is reported as 10 of 10, the survivor count (dose: 25.0 mg/kg/injection, vehicle: Klucel (hydroxypropylcellulose) (HPC)) is reported as 10 of 10 and the survivor count (dose: 50.0 mg/kg/injection, vehicle: Klucel (hydroxypropylcellulose) (HPC)) is reported as 10 of 10. The survivor count (dose: 100.0 mg/kg/injection, vehicle: Klucel (hydroxypropylcellulose) (HPC)) was 10 of 10.

In the case of C=C(C)C(=O)OC1CC(C)(O)C2(O)CCC(C)(/C=C3\OC(=O)C(COC(C)=O)=C31)O2 (configuration not stated), the survivor count (dose: 10.0 mg/kg/injection, vehicle: distilled water + Tween-80 + alcohol) is reported as 9 of 10.

With COc1ccc(OC)c(/C=C/c2ccnc3ccccc23)c1 the T/C [1] was 125 % of control [8 of 10 alive], the T/C (dose: 400.0 mg/kg/injection, vehicle: saline sonified) was 132 % of control and the survivor count [2] was 4 of 10. For the same compound, the survivor count (dose: 800.0 mg/kg/injection, vehicle: saline with Tween-80) was 3 of 10.

With COC(=O)[C@@]12OC[C@]34[C@H]([C@@H](O)[C@@H]1O)[C@@]1(C)CC(=O)C(O)=C(C)[C@@H]1C[C@H]3OC(=O)[C@H](OC(=O)CC(C)C)[C@@H]24 the T/C (dose: 0.25 mg/kg/injection, vehicle: saline + alcohol) was 141 and 142 % of control, the T/C (dose: 0.5 mg/kg/injection, vehicle: saline + alcohol) was 134 and 147 % of control and the T/C (dose: 2.0 mg/kg/injection, vehicle: saline + alcohol) was 134 % of control. The survivor count (dose: 4.0 mg/kg/injection, vehicle: saline + alcohol) was 0 of 10 and 2 of 10.

COc1cccc2c1C(=O)c1c(O)c3c(c(O)c1C2=O)C[C@@](O)(C(=O)CO)C[C@@H]3OC1CC(N)CC(C)O1 (some centres not stated) was tested, and the survivor count (dose: 3.0 mg/kg/injection, vehicle: water) was 10 of 10 and the survivor count (dose: 6.0 mg/kg/injection, vehicle: water) was 9 of 10.

Nc1nc(N)c2c(Cl)c(CNc3ccc(Cl)c(Cl)c3)ccc2n1 was tested, and the T/C (dose: 25.0 mg/kg/injection, vehicle: saline with Tween-80) was 131 % of control, the survivor count [3] was 10 of 10 and the survivor count [4] was 10 of 10.

In the case of c1cn[nH]c1, the survivor count [5] is reported as 8 of 10.

C1OCN2CSCC12 (configuration not stated) was tested, and the survivor count [2] was 6 of 10.

For C(=N/NC1=NCCN1)/c1c2ccccc2c(/C=N\NC2=NCCN2)c2ccccc12, the survivor count [6] was 10 of 10 and the survivor count [7] was 10 of 10.

With CC(NC(=O)OCc1ccccc1)C(=O)NC(C(=O)O)C(C)O (configuration not stated) the survivor count [8] was 10 of 10.

N=C1C=C[C@]2(O)C[C@H](Cl)CN12 was tested, and the survivor count (dose: 12.0 mg/kg/injection, vehicle: saline) was 9 of 10.

O=CC(O)C(O)C(O)C(O)C(=O)O.[NH-]C1CCCCC1[NH-].[Pt+2] (configuration not stated) was tested, and the T/C (dose: 0.38 mg/kg/injection, vehicle: saline) was 138 % of control, the T/C (dose: 0.75 mg/kg/injection, vehicle: saline) was 133 % of control and the T/C (dose: 1.56 mg/kg/injection, vehicle: saline, evaluated on day 45) was 137 % of control. The T/C (dose: 1.56 mg/kg/injection, vehicle: saline, evaluated on day 60) was 133 % of control, the survivor count (dose: 3.12 mg/kg/injection, vehicle: saline) was 10 of 10 and the survivor count (dose: 3.13 mg/kg/injection, vehicle: saline) was 10 of 10. For the same compound, the survivor count (dose: 6.25 mg/kg/injection, vehicle: saline) was 10 of 10 (2×), the survivor count (dose: 12.5 mg/kg/injection, vehicle: saline) was 10 of 10 (2×) and the survivor count [6] was 8 of 10 and 10 of 10. For the same compound, the survivor count [7] was 0 of 10 (2×).

Oc1c(Cl)cc(C(c2cc(Cl)c(O)c(Cl)c2)C(c2cc(Cl)c(O)c(Cl)c2)c2cc(Cl)c(O)c(Cl)c2)cc1Cl was tested, and the survivor count [8] was 4 of 10 and 8 of 10.

With CC1(C)COCN1COCCOCN1COCC1(C)C the survivor count [5] was 7 of 10.

O=S(=O)(CCl)OCCCl was tested, and the survivor count (dose: 6.25 mg/kg/injection, vehicle: saline with Tween-80) was 10 of 10, the T/C [3] was 127 % of control and the survivor count [4] was 1 of 10 and 10 of 10. For the same compound, the survivor count [1] was 0 of 10, 3 of 10, 7 of 10.

For O=C(O)Cc1cccc2c(=O)cc(-c3ccccc3)oc12, the T/C (dose: 50.0 mg/kg/injection, vehicle: suspension in saline) was 135 % of control and the survivor count (dose: 200.0 mg/kg/injection, vehicle: suspension in saline) was 5 of 10 and 9 of 10.

For O=C1C(Cl)=C(Cl)C(=O)C2=C1C1c3ccccc3C2c2ccccc21, the survivor count [2] was 10 of 10.
